Measurements reported in paper PMC10352136.
Results are given in words; binding and its absence hold for the method and conditions named.

Chains of the proteins cited; added tags and fusions are not shown.
UniProt Q13596: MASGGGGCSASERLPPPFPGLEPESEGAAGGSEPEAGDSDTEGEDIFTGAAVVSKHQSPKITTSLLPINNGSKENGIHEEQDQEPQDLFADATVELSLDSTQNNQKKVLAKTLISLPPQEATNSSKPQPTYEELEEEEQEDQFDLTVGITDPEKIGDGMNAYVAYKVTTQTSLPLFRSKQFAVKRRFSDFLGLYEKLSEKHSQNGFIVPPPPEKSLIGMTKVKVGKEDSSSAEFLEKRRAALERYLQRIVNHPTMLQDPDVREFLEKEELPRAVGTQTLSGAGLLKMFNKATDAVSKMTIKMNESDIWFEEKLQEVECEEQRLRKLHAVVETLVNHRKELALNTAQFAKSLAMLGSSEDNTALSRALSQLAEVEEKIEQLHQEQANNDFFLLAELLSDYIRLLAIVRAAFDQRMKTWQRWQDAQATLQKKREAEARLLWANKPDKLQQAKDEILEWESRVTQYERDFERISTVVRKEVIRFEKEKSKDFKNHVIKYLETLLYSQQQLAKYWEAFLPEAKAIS

B1: SNX5^FL (full-length sorting nexin 5), Q9Y5X3 1-404 (protein)
chain: MAAVPELLQQQEEDRSKLRSVSVDLNVDPSLQIDIPDALSERDKVKFTVHTKTTLPTFQSPEFSVTRQHEDFVWLHDTLIETTDYAGLIIPPAPTKPDFDGPREKMQKLGEGEGSMTKEEFAKMKQELEAEYLAVFKKTVSSHEVFLQRLSSHPVLSKDRNFHVFLEYDQDLSVRRKNTKEMFGGFFKSVVKSADEVLFTGVKEVDDFFEQEKNFLINYYNRIKDSCVKADKMTRSHKNVADDYIHTAACLHSLALEEPTVIKKYLLKVAELFEKLRKVEGRVSSDEDLKLTELLRYYMLNIEAAKDLLYRRTKALIDYENSNKALDKARLKSKDVKLAEAHQQECCQKFEQLSESAKEELINFKRKRVAAFRKNLIEMSELEIKHARNNVSLLQSCIDLFKNN

Legend:
[1] = target: T1, SNX5^FL (full-length sorting nexin 5) (human), Q9Y5X3; test: SEC-MALS; 100 μl of protein at 1 mg ml^−1 in 150 mM NaCl, 0.5 mM TCEP, 10 mM HEPES pH 7.5; Superdex 200 Increase 10/300 GL; both purified; details: remark: other sources report otherwise
T1 chain: B1 chain

[2] = target: SNX1^FL (full-length sorting nexin 1) (human) (UniProt Q13596); test: condition: 242 µM peptide titrated into 19.6 µM SNX1; ITC; 25 °C, 300 mM NaCl, 0.5 mM TCEP, 25 mM HEPES pH 7.5; CI-MPR in the syringe (SNX1^PX in the syringe for its test with the peptide); one-site model; both purified
[3] = target: SNX1^BAR–SNX5^BAR heterodimer (human) (UniProt Q13596+Q9Y5X3); test: condition: 805 µM peptide titrated into 21 µM complex; ITC; 25 °C, 300 mM NaCl, 0.5 mM TCEP, 25 mM HEPES pH 7.5; CI-MPR in the syringe (SNX1^PX in the syringe for its test with the peptide); one-site model; both purified

Binder	binding [1]	binding [2]	binding [3]
B1	no binding (tested: 1 mg ml^−1)	–	–
SNVSYKYSKVNKEEETDENETEWLMEEIQ (peptide, UniProt P11717 2347-2375)	–	no binding	no binding
